Assay results reported in patent US7449185 (Daiichi Sankyo, dated 2008).
Like-named read-outs stand apart in the source and are kept apart here. These are yes or no findings as the source states them, for the method shown. Some results given as binding are weak or reduced against the parent protein; the word gives no strength. For part of these data: Sequences can lack the tags named with a protein. Values belong to the molecule of their own block, whether it stands above or below them.

The chains behind the UniProt entries cited, without tags or fusion partners. Where a name states a change or a piece, a line headed by the entry shows the natural chain unless it says otherwise.
UniProt O35235: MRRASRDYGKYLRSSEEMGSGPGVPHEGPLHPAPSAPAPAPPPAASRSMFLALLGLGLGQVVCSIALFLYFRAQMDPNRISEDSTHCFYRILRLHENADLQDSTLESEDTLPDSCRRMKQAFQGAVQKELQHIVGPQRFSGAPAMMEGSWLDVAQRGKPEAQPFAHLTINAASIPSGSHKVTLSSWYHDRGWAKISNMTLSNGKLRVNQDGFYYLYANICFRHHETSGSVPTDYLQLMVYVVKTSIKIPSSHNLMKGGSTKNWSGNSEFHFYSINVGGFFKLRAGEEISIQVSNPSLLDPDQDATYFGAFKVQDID

What was measured:
[1] = biological target: T1, osteoclastogenesis inhibitory factor (OCIF), recombinant, monomer or dimer type not specified at the place of use (human) (UniProt O00300); assay: ELISA: capture by anti-thioredoxin antibody, OCIF added, peroxidase-labeled anti-OCIF antibody
T1 sequence (125I on tyrosine residues where used as 125I-labeled OCIF (Iodogen method), looked up): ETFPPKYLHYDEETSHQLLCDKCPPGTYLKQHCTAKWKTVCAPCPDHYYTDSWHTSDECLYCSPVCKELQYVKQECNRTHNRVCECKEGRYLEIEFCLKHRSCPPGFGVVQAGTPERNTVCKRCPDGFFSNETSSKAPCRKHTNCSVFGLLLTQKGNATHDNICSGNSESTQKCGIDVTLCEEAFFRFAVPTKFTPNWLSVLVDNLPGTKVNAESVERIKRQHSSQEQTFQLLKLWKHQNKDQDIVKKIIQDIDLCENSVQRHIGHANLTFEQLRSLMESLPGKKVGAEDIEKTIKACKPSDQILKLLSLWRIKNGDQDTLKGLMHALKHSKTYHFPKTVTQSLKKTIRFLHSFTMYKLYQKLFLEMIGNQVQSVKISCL

[2] = biological target: natural OCIF-binding protein (mouse OBM) on mouse osteoblastic stromal ST2 cells cultured with active-form vitamin D3 and dexamethasone (mouse) (UniProt O35235); assay: 125I-OCIF binding to ST2 cells, time course
[3] = biological target: natural OCIF-binding protein (mouse OBM) on mouse osteoblastic stromal ST2 cells cultured with active-form vitamin D3 and dexamethasone (mouse) (UniProt O35235); assay: DSS crosslinking on ST2 cells, SDS-PAGE, autoradiography
[4] = biological target: T2, human OBM expressed on COS-7 cells transfected with phOBM (human) (UniProt O14788); assay: DSS crosslinking on phOBM-transfected COS-7 cells, SDS-PAGE, autoradiography
T2 sequence: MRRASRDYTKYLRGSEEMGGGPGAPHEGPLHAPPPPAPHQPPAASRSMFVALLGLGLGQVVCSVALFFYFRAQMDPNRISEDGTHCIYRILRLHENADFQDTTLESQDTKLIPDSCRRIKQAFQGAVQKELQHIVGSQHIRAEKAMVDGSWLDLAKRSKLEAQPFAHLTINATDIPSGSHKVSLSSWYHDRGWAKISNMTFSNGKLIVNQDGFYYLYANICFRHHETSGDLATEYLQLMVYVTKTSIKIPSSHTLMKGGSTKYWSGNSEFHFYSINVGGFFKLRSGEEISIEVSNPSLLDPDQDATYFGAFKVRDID

[5] = biological target: mouse OBM expressed on COS-7 cells transfected with pOBM291 (mouse) (UniProt O35235); assay: DSS crosslinking on pOBM291-transfected COS-7 cells, SDS-PAGE, autoradiography
[6] = biological target: natural type purified OCIF-binding protein from ST2 cell membranes (mouse) (UniProt O35235); assay: OCIF-immobilized affinity column, SDS-PAGE of eluate
[7] = biological target: mouse OBM expressed on COS-7 cells transfected with pOBM291 (mouse) (UniProt O35235); assay: expression cloning: 125I-OCIF (20 ng/ml) binding to transfected COS-7 cells
[8] = biological target: natural OCIF-binding protein (mouse OBM) on mouse osteoblastic stromal ST2 cells cultured with active-form vitamin D3 and dexamethasone (mouse) (UniProt O35235); assay: 125I-OCIF (monomer or dimer form, 20 ng/ml) binding to cultured cells, gamma counting
[9] = biological target: mouse OBM expressed on COS-7 cells transfected with pOBM291 (mouse) (UniProt O35235); assay: 125I-OCIF (20 ng/ml) binding to transfected COS cells; inhibited by 400-fold unlabeled OCIF
[10] = biological target: T2, human OBM expressed on COS-7 cells transfected with phOBM (human); assay: 125I-OCIF (20 ng/ml) binding to transfected COS-7 cells; inhibited by 400-fold unlabeled OCIF
[11] = biological target: T3, human soluble OBM (hsOBM) (human) (UniProt O14788); assay: ELISA: conditioned medium immobilized, OCIF 3-100 ng/ml, peroxidase-labeled anti-OCIF antibody
T3 sequence: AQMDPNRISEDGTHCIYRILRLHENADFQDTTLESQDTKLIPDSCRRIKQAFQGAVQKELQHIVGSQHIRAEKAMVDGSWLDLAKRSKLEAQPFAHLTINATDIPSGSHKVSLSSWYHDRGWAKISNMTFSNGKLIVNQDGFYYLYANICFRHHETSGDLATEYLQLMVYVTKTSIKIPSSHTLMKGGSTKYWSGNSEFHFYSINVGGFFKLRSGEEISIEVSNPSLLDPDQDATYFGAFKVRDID

[12] = biological target: secreted-form OBM (mouse) in conditioned medium of 293-EBNA cells transfected with pCEP sOBM (Example 14) (mouse) (UniProt O35235); assay: as above
[13] = biological target: natural type purified OCIF-binding protein from ST2 cell membranes (mouse) (UniProt O35235); assay: OCIF added to column fractions, immunoprecipitation with anti-OCIF polyclonal antibody, SDS-PAGE
[14] = biological target: T3, human soluble OBM (hsOBM) (human); assay: ELISA: culture supernatant immobilized, rOCIF 3-100 ng/ml, peroxidase-labeled anti-OCIF antibody
[15] = biological target: mouse soluble OBM (msOBM) (mouse) (UniProt O35235); assay: as above
[16] = biological target: T4, calcitonin receptor on TRAP positive cells formed from mouse spleen cells (mouse) (UniProt Q60755); assay: binding of 125I-calcitonin to TRAP positive cells induced by Trx-hOBM or secreted-form hOBM
T4 sequence (looked up): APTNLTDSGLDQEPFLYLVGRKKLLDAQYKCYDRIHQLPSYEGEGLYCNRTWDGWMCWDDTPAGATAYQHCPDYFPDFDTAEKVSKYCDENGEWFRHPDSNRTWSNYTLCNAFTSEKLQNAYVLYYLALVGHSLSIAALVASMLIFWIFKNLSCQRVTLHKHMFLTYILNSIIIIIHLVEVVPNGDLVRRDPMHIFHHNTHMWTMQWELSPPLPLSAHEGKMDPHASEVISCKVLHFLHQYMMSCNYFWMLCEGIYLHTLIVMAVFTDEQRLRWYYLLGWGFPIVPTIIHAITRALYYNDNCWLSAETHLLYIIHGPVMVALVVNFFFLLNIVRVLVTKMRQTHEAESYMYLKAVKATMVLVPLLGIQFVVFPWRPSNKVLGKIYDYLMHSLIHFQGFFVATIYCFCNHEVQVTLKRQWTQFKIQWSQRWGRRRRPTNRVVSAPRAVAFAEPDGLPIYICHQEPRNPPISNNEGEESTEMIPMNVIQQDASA

[17] = biological target: T4, calcitonin receptor on TRAP positive cells formed from mouse spleen cells (mouse); assay: binding of 125I-calcitonin to TRAP positive cells induced by fixed phOBM-transfected COS-7 cells
[18] = biological target: T1, osteoclastogenesis inhibitory factor (OCIF), recombinant, monomer or dimer type not specified at the place of use (human); assay: ELISA: capture by anti-thioredoxin antibody, OCIF added, peroxidase-labeled anti-OCIF antibody; remark: listed apart in the source

Molecule: thioredoxin-OBM fusion protein (Trx-OBM) (from UniProt O35235 76-316)
binding [1]: binds

binding [2]: binds
binding [3]: binds
binding [4]: binds
binding [5]: binds
B1: OCIF, monomer type (60 kDa) (receptor, human, UniProt O00300 22-401, looked up)
chain: T1 sequence (125I on tyrosine residues where used as 125I-labeled OCIF (Iodogen method), looked up)
modifications: 125I on tyrosine residues (Iodogen method)

binding [6]: binds
binding [7]: binds
binding [8]: binds
binding [9]: binds
binding [10]: binds
binding [11]: binds
binding [12]: binds
binding [13]: binds
binding [14]: binds
binding [15]: binds
B2: osteoclastogenesis inhibitory factor (OCIF), recombinant, monomer or dimer type not specified at the place of use (receptor, human, UniProt O00300 22-401, looked up)
chain: T1 sequence (125I on tyrosine residues where used as 125I-labeled OCIF (Iodogen method), looked up)
modifications: 125I on tyrosine residues where used as 125I-labeled OCIF (Iodogen method)

binding [16]: binds
binding [17]: binds
Molecule: CSNLSTCVLGKLSQELHKLQTYPRTNTGSGTP (peptide, UniProt P01263 83-114, looked up, 125I-labeled) [125I-labeled salmon calcitonin (Amersham Co.)]

B3: thioredoxin-human OBM fusion protein (Trx-hOBM) (protein, not shown: large carriers)
chain: DPNRISEDGTHCIYRILRLHENADFQDTTLESQDTKLIPDSCRRIKQAFQGAVQKELQHIVGSQHIRAEKAMVDGSWLDLAKRSKLEAQPFAHLTINATDIPSGSHKVSLSSWYHDRGWAKISNMTFSNGKLIVNQDGFYYLYANICFRHHETSGDLATEYLQLMVYVTKTSIKIPSSHTLMKGGSTKYWSGNSEFHFYSINVGGFFKLRSGEEISIEVSNPSLLDPDQDATYFGAFKVRDID
binding [18]: binds
